Among the data in paper PMC5009064 are binding values, retold here.

Chains of the proteins cited; added tags and fusions are not shown.
UniProt Q96EP0: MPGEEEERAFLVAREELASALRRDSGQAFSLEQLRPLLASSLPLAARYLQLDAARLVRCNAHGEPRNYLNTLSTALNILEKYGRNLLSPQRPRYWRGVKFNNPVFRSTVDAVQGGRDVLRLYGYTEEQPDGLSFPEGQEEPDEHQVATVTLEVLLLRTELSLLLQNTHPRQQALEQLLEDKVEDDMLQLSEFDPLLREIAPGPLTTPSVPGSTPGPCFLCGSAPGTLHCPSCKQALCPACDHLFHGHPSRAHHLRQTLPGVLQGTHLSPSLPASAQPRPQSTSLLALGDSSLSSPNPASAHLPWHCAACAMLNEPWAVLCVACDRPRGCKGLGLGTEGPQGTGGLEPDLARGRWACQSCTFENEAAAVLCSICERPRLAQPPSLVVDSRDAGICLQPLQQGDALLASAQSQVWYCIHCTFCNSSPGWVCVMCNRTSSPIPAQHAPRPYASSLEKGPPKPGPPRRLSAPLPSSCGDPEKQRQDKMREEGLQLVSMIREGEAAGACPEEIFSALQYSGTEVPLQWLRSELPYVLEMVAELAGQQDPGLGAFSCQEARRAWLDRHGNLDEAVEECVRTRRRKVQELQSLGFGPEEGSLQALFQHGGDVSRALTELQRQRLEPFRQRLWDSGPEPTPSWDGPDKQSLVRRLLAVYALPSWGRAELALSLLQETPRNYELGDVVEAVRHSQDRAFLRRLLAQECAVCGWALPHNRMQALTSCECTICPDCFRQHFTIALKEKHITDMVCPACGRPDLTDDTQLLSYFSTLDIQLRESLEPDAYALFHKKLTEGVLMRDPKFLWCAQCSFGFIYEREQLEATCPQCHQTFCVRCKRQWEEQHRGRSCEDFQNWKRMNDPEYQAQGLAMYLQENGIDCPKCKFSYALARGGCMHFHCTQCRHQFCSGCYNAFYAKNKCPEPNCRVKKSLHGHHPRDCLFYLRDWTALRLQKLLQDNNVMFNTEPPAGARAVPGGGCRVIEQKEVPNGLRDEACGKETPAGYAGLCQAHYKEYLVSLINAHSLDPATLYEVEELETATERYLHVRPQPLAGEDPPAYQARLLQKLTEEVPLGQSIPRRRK

Results are given in words; binding and its absence hold for the method and conditions named. In cells and extracts the contact can be indirect. These calls come from enrichment with a bait or labelling near it, and not all partners need be listed.

The assay has as its target TAP-tagged wild-type HOIP (UniProt Q96EP0). Description: affinity purification with mass spectrometry; modified tandem affinity purification of HOIP-TAP from reconstituted HOIP-deficient K562 cells; nLC-MS/MS.

B1: SHARPIN (protein, UniProt Q9H0F6 1-387)
chain: MAPPAGGAAAAASDLGSAAVLLAVHAAVRPLGAGPDAEAQLRRLQLSADPERPGRFRLELLGAGPGAVNLEWPLESVSYTIRGPTQHELQPPPGGPGTLSLHFLNPQEAQRWAVLVRGATVEGQNGSKSNSPPALGPEACPVSLPSPPEASTLKGPPPEADLPRSPGNLTEREELAGSLARAIAGGDEKGAAQVAAVLAQHRVALSVQLQEACFPPGPIRLQVTLEDAASAASAASSAHVALQVHPHCTVAALQEQVFSELGFPPAVQRWVIGRCLCVPERSLASYGVRQDGDPAFLYLLSAPREAPATGPSPQHPQKMDGELGRLFPPSLGLPPGPQPAASSLPSPLQPSWSCPSCTFINAPDRPGCEMCSTQRPCTWDPLAAAST
Take B1: the binding entry is recorded as “binds”.

B2: SPATA2 (protein, UniProt Q9UM82 1-520)
chain: MGKPSSMDTKFKDDLFRKYVQFHESKVDTTTSRQRPGSDECLRVAASTLLSLHKVDPFYRFRLIQFYEVVESSLRSLSSSSLRALHGAFSMLETVGINLFLYPWKKEFRSIKTYTGPFVYYVKSTLLEEDIRAILSCMGYTPELGTAYKLRELVETLQVKMVSFELFLAKVECEQMLEIHSQVKDKGYSELDIVSERKSSAEDVRGCSDALRRRAEGREHLTASMSRVALQKSASERAAKDYYKPRVTKPSRSVDAYDSYWESRKPPLKASLSLRKEPVATDVGDDLKDEIIRPSPSLLTMASSPHGSPDVLPPASPSNGPALLRGTYFSTQDDVDLYTDSEPRATYRRQDALRPDVWLLRNDAHSLYHKRSPPAKESALSKCQSCGLSCSSSLCQRCDSLLTCPPASKPSAFPSKASTHDSLAHGASLREKYPGQTQGLDRLPHLHSKSKPSTTPTSRCGFCNRPGATNTCTQCSKVSCDACLSAYHYDPCYKKSELHKFMPNNQLNYKSTQLSHLVYR
Take B2: the binding entry was “binds”.
